Taken from: PubChem BioAssay AID1259254 (NCATS, 2017)
In all, the deposit lists about 59,000 reagents; this is a random part of them. Of all reagents, about 1,550 (2.6%) are marked active. 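G2 share is only a proxy for re-replication; each gene was hit by three separate siRNAs, and active genes were retested.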 Reagents against one gene are numbered here. Further read-outs or replicates are left out here. The record does not give: the amount of reagent.

Purpose: 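Genome-wide screen for genes that prevent DNA re-replication in cancer cells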 (primary screen)
Cell system: human HCT116 colorectal cancer cells
Knock-down reagent: single siRNA against human genes
Duration: 3 days
Measured: 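Imaged Hoechst DNA stain sorts each cell into a cycle phase by DNA amount; per plate, G2 fraction set to 0% for non-targeting and 100% for GMNN siRNA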
Scale: G2 robust z-score and G2 cells, % of GMNN control: higher = more G2 cells, more excess DNA replication
Hit rule: 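Active siRNAs have a G2 robust z of 5 or more median absolute deviations over the median, which in these data means about 38% or higher of GMNN control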

gene knocked down | reagent | G2 robust z-score | G2 cells, % of GMNN control | outcome
TCN1 (transcobalamin 1) | 1 | 2.98 | 23.9 | inactive
TCN1 (transcobalamin 1) | 2 | -0.231 | 1.34 | inactive
TCN1 (transcobalamin 1) | 3 | 0.819 | 8.73 | inactive
CD163L1 (CD163 molecule like 1) | 1 | -1.15 | -5.12 | inactive
CD163L1 (CD163 molecule like 1) | 2 | -0.473 | -0.363 | inactive
CD163L1 (CD163 molecule like 1) | 3 | 4.16 | 32.2 | inactive
SPMIP8 (sperm microtubule inner protein 8) | 1 | 1.86 | 16 | inactive
SPMIP8 (sperm microtubule inner protein 8) | 2 | -0.634 | -1.5 | inactive
SPMIP8 (sperm microtubule inner protein 8) | 3 | 1.34 | 12.4 | inactive
WFDC8 (WAP four-disulfide core domain 8) | 1 | 0.682 | 7.76 | inactive
WFDC8 (WAP four-disulfide core domain 8) | 2 | -0.36 | 0.435 | inactive
WFDC8 (WAP four-disulfide core domain 8) | 3 | -0.247 | 1.23 | inactive
NAMPT (nicotinamide phosphoribosyltransferase) | 1 | -0.547 | -0.882 | inactive
NAMPT (nicotinamide phosphoribosyltransferase) | 2 | -0.269 | 1.08 | inactive
NAMPT (nicotinamide phosphoribosyltransferase) | 3 | 0.783 | 8.48 | inactive
RPL23AP14 (ribosomal protein L23a pseudogene 14) | 1 | 1.05 | 10.4 | inactive
RPL23AP14 (ribosomal protein L23a pseudogene 14) | 2 | -0.115 | 2.16 | inactive
RPL23AP14 (ribosomal protein L23a pseudogene 14) | 3 | 1.26 | 11.9 | inactive
OGFOD1 | 1 | -0.55 | -0.9 | inactive
OGFOD1 | 2 | -0.343 | 0.554 | inactive
OGFOD1 | 3 | 4.68 | 35.9 | inactive
HSP90B1 (heat shock protein 90 beta family member 1) | 1 | -0.459 | -0.265 | inactive
HSP90B1 (heat shock protein 90 beta family member 1) | 2 | -0.687 | -1.87 | inactive
HSP90B1 (heat shock protein 90 beta family member 1) | 3 | 0.0362 | 3.22 | inactive
NPTX1 (neuronal pentraxin 1) | 1 | 0.266 | 4.84 | inactive
NPTX1 (neuronal pentraxin 1) | 2 | -0.194 | 1.6 | inactive
NPTX1 (neuronal pentraxin 1) | 3 | 0.00223 | 2.98 | inactive
PCDH18 (protocadherin 18) | 1 | -0.232 | 1.33 | inactive
PCDH18 (protocadherin 18) | 2 | 0.0273 | 3.16 | inactive
PCDH18 (protocadherin 18) | 3 | 2.49 | 20.5 | inactive

2 successive records already listed, for reference:
gene knocked down | reagent | G2 robust z-score | G2 cells, % of GMNN control | outcome
RPL23AP14 (ribosomal protein L23a pseudogene 14) | 3 | 1.26 | 11.9 | inactive
OGFOD1 | 1 | -0.55 | -0.9 | inactive
